{"source": "PubChem BioAssay AID1259276 (Sanger Institute, 2017)", "assay": "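Find kinases whose silencing cuts viability alone or combined with BYL719, cetuximab or trametinib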 (primary screen)", "system": "human C2BBe1 colorectal cancer cells", "knock-down reagent": "siRNA pool against human genes", "treatment": "DMSO vehicle, or one anchor drug: BYL719 at 1 µM, cetuximab at 5 µg/ml, or trametinib at 10 nM; exposure length not stated", "read-out": "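Cell viability as a fraction of non-targeting control wells, mean of replicates, also as a control-based robust z-score, plus a synergy score for each anchor drug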", "scale": "viability robust z-score, siRNA alone and viability vs control, siRNA alone: higher = more viable cells after knock-down", "active means": "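a siRNA pool tested without drug is essential if its viability robust z-score falls under -3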", "meaning of the calls": "active = essential (siRNA alone); inactive = no change (siRNA alone)", "note": "Shown is an unselected part of 794 deposited reagents. Over the whole deposit, 24 (3%) are marked active. 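Calls come only from the siRNA-alone arm; drug synergy scores do not affect them.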 No viability above 1 is reported: the scale is capped. Further read-outs or replicates are left out here. Not given: the amount of reagent, the time to read-out."}
{"gene symbol": "IKBKB", "viability robust z-score, siRNA alone": 0.472, "viability vs control, siRNA alone": 1, "activity call": "inactive"}
{"gene symbol": "EPHA8", "viability robust z-score, siRNA alone": 0.472, "viability vs control, siRNA alone": 1, "activity call": "inactive"}
{"gene symbol": "TAF1", "viability robust z-score, siRNA alone": -0.205, "viability vs control, siRNA alone": 0.957, "activity call": "inactive"}
{"gene symbol": "MAPK1", "viability robust z-score, siRNA alone": 0.472, "viability vs control, siRNA alone": 1, "activity call": "inactive"}
{"gene symbol": "HIPK3", "viability robust z-score, siRNA alone": -0.937, "viability vs control, siRNA alone": 0.911, "activity call": "inactive"}
{"gene symbol": "DCLK1", "viability robust z-score, siRNA alone": 0.472, "viability vs control, siRNA alone": 1, "activity call": "inactive"}
{"gene symbol": "NEK1", "viability robust z-score, siRNA alone": 0.472, "viability vs control, siRNA alone": 1, "activity call": "inactive"}
{"gene symbol": "BPTF", "viability robust z-score, siRNA alone": 0.472, "viability vs control, siRNA alone": 1, "activity call": "inactive"}
{"gene symbol": "CDK11A", "viability robust z-score, siRNA alone": 0.472, "viability vs control, siRNA alone": 1, "activity call": "inactive"}
{"gene symbol": "MAP2K4", "viability robust z-score, siRNA alone": 0.472, "viability vs control, siRNA alone": 1, "activity call": "inactive"}
{"gene symbol": "EIF2AK4", "viability robust z-score, siRNA alone": 0.472, "viability vs control, siRNA alone": 1, "activity call": "inactive"}
{"gene symbol": "MAP3K5", "viability robust z-score, siRNA alone": 0.472, "viability vs control, siRNA alone": 1, "activity call": "inactive"}
{"gene symbol": "EIF2AK1", "viability robust z-score, siRNA alone": 0.472, "viability vs control, siRNA alone": 1, "activity call": "inactive"}
{"gene symbol": "MECOM", "viability robust z-score, siRNA alone": 0.472, "viability vs control, siRNA alone": 1, "activity call": "inactive"}
{"gene symbol": "UHMK1", "viability robust z-score, siRNA alone": 0.472, "viability vs control, siRNA alone": 1, "activity call": "inactive"}
{"gene symbol": "TBK1", "viability robust z-score, siRNA alone": -0.339, "viability vs control, siRNA alone": 0.949, "activity call": "inactive"}
{"gene symbol": "ELP1", "viability robust z-score, siRNA alone": 0.472, "viability vs control, siRNA alone": 1, "activity call": "inactive"}
{"gene symbol": "ACVR1C", "viability robust z-score, siRNA alone": 0.472, "viability vs control, siRNA alone": 1, "activity call": "inactive"}
{"gene symbol": "BMX", "viability robust z-score, siRNA alone": 0.472, "viability vs control, siRNA alone": 1, "activity call": "inactive"}
{"gene symbol": "ADGRL2", "viability robust z-score, siRNA alone": -1.17, "viability vs control, siRNA alone": 0.897, "activity call": "inactive"}
{"gene symbol": "NIM1K", "viability robust z-score, siRNA alone": 0.472, "viability vs control, siRNA alone": 1, "activity call": "inactive"}
{"gene symbol": "ROCK2", "viability robust z-score, siRNA alone": 0.263, "viability vs control, siRNA alone": 0.987, "activity call": "inactive"}
{"gene symbol": "PIP4K2A", "viability robust z-score, siRNA alone": 0.472, "viability vs control, siRNA alone": 1, "activity call": "inactive"}
{"gene symbol": "PRKACB", "viability robust z-score, siRNA alone": 0.472, "viability vs control, siRNA alone": 1, "activity call": "inactive"}
{"gene symbol": "PNCK", "viability robust z-score, siRNA alone": 0.472, "viability vs control, siRNA alone": 1, "activity call": "inactive"}
{"gene symbol": "RIPK2", "viability robust z-score, siRNA alone": 0.472, "viability vs control, siRNA alone": 1, "activity call": "inactive"}
{"gene symbol": "PFKFB2", "viability robust z-score, siRNA alone": -2.74, "viability vs control, siRNA alone": 0.798, "activity call": "inactive"}
{"gene symbol": "PRKAG1", "viability robust z-score, siRNA alone": 0.472, "viability vs control, siRNA alone": 1, "activity call": "inactive"}
{"gene symbol": "SMAD2", "viability robust z-score, siRNA alone": 0.472, "viability vs control, siRNA alone": 1, "activity call": "inactive"}
{"gene symbol": "MAP2K2", "viability robust z-score, siRNA alone": 0.472, "viability vs control, siRNA alone": 1, "activity call": "inactive"}
{"gene symbol": "PIK3C2G", "viability robust z-score, siRNA alone": 0.472, "viability vs control, siRNA alone": 1, "activity call": "inactive"}
{"gene symbol": "SRGAP3", "viability robust z-score, siRNA alone": 0.472, "viability vs control, siRNA alone": 1, "activity call": "inactive"}
{"gene symbol": "MARK3", "viability robust z-score, siRNA alone": 0.472, "viability vs control, siRNA alone": 1, "activity call": "inactive"}
{"gene symbol": "PDK1", "viability robust z-score, siRNA alone": 0.472, "viability vs control, siRNA alone": 1, "activity call": "inactive"}
{"gene symbol": "TTBK2", "viability robust z-score, siRNA alone": 0.472, "viability vs control, siRNA alone": 1, "activity call": "inactive"}
{"gene symbol": "FCSK", "viability robust z-score, siRNA alone": 0.472, "viability vs control, siRNA alone": 1, "activity call": "inactive"}

Not a retest: an excerpt of the list.
{"gene symbol": "ELP1", "viability robust z-score, siRNA alone": 0.472, "viability vs control, siRNA alone": 1, "activity call": "inactive"}
{"gene symbol": "ACVR1C", "viability robust z-score, siRNA alone": 0.472, "viability vs control, siRNA alone": 1, "activity call": "inactive"}
{"gene symbol": "BMX", "viability robust z-score, siRNA alone": 0.472, "viability vs control, siRNA alone": 1, "activity call": "inactive"}
